# From PubChem BioAssay AID493014 (National Center for Advancing Translational Sciences (NCATS), 2011)
# The other results are listed elsewhere or left out. The main result of the screen is listed elsewhere. These columns were measured beside it and carry no call. The list favours compounds with an active or inconclusive main result. Words in brackets tell the shape of the fitted curve; partial curves, single points and poor fits give uncertain potencies.
# Assay: qHTS Assay to Find Inhibitors of Chronic Active B-Cell Receptor Signaling
# Details: ABC-DLBCL IkBa-CBG/CBR reporter, luminescence ratio (green luciferase fused to IkBa over red control in TMD8 lymphoma cells), 4 h
# How it was run: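 Concentration-response series (up to 46 uM) were applied to TMD8 dual-reporter cells for 4 h at 37C with doxycycline. Green/red ratio, after filter-overlap correction, defined %Activity; red signal alone was normalised to basal cells and zero luminescence.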
# [1] = measured here: CBR red luminescence, cell number
# [2] = measured here: IkBa-CBG green luminescence
Compound,AC50 [1],AC50 [2]
Fc1ccccc1-c1nc(-c2ccc(Br)o2)no1,"2 µM [rising, partial curve, poor fit]",
COc1cc(C[C@H](C)[C@H](C)Cc2ccc3c(c2)OCO3)ccc1O,"10 µM [rising, single point]",
O=C(NCCSc1c[nH]c2ccccc12)c1ccc2c(c1)OCO2,"20 µM [falling, partial curve, poor fit]",
CCOCCCNC(=S)N1C2CCC1CC(NC(=O)NC13CC4CC(CC(C4)C1)C3)C2 (stereo not drawn),"16.4 µM [falling, partial curve, poor fit]",
CCCCCC(=O)c1ccc(O)cc1O,"11.2 µM [rising, partial curve]",
COc1ccccc1NC(=O)C(C)Nc1ccc(C)c(Cl)c1 (stereo not drawn),"25.1 µM [falling, single point]",
COc1ccc(-c2nc(C(N)=O)c3[nH]c(=O)n(-c4ccccc4OC)c3n2)c(OC)c1,"0.731 µM [rising, full curve]","1.64 µM [falling, partial curve, poor fit]"
CC(=O)NCCc1nc2cc(NC(=O)c3cccs3)ccc2n1C,"3.16 µM [falling, single point]",
COc1ccc(C[C@](C)(N)C(=O)O)cc1OC,,"18.4 µM [falling, partial curve, poor fit]"
COc1ccc(OC)c(N=Cc2c(O)[nH]c3ccccc23)c1,"0.251 µM [falling, full curve, poor fit]",
COc1ccccc1C(=O)NCCC(=O)Nc1nc2ccccc2[nH]1,"10.3 µM [falling, partial curve]",
CCN(CC)c1ccc(CNc2nc3ccccc3n2CCN2CCCCC2)cc1,"15.8 µM [falling, single point]",
O=c1oc2ccccc2cc1-c1cn2ccccc2n1,"3.16 µM [falling, full curve]",
Brc1ccc(-c2nnc(Cc3ccccc3)o2)cc1,"11.2 µM [falling, single point]",
CCOc1ccc(Oc2cc(N)cc([N+](=O)[O-])c2)cc1,"35.5 µM [rising, partial curve, poor fit]",
CCN(c1ccccc1)S(=O)(=O)c1ccc(NC(=O)c2ccco2)cc1,"35.5 µM [falling, single point]",
CCOC(=O)c1ccc(NC(=O)c2cccc(C)c2[N+](=O)[O-])cc1,"11.2 µM [falling, partial curve, poor fit]",
CC(Sc1ccccn1)C(=O)Nc1ccc2c(c1)OCO2 (stereo not drawn),"29.1 µM [rising, single point]",
O=C(CN1CCOCC1)Nc1ncc(Br)cc1Br,"0.517 µM [falling, full curve, poor fit]",
Cn1c(=O)c2ncn(CC(=O)N/N=C/C=C/c3ccccc3)c2n(C)c1=O,"35.5 µM [rising, partial curve, poor fit]",
Clc1ccc2c(c1)C1OCCC1C(c1ccco1)N2 (stereo not drawn),"29.1 µM [falling, single point]","16.4 µM [rising, partial curve, poor fit]"

# Look-ups from the entries so far.
# Cn1c(=O)c2ncn(CC(=O)N/N=C/C=C/c3ccccc3)c2n(C)c1=O – AC50 [1]: 35.5 µM [rising, partial curve, poor fit]
# Fc1ccccc1-c1nc(-c2ccc(Br)o2)no1 – AC50 [1]: 2 µM [rising, partial curve, poor fit]
# O=c1oc2ccccc2cc1-c1cn2ccccc2n1 – AC50 [1]: 3.16 µM [falling, full curve]
# COc1ccccc1C(=O)NCCC(=O)Nc1nc2ccccc2[nH]1 – AC50 [1]: 10.3 µM [falling, partial curve]
# CCOCCCNC(=S)N1C2CCC1CC(NC(=O)NC13CC4CC(CC(C4)C1)C3)C2 (stereo not drawn) – AC50 [1]: 16.4 µM [falling, partial curve, poor fit]

# Further records follow:

Compound,AC50 [1],AC50 [2]
CCCn1c(SCC(=O)Nc2ccccc2N2CCOCC2)nc2c1c(=O)n(C)c(=O)n2C,"0.00651 µM [falling, full curve, poor fit]",
CCOC(=O)C1=C(COC(=O)C2(C)CC2(Cl)Cl)NC(=O)NC1c1ccccc1 (stereo not drawn),"6.31 µM [falling, partial curve, poor fit]",
O=C(NNS(=O)(=O)c1ccc(F)cc1)c1ccc([N+](=O)[O-])cc1,"0.501 µM [rising, partial curve, poor fit]",
CC(=O)NC1=NC(=O)/C(=C/N2CCOCC2)S1,"1.3 µM [falling, full curve, poor fit]",
COCc1ccc(C(=O)Nc2ccc(C(=O)O)cc2)o1,"22.4 µM [falling, single point]",
CCCCCCCCn1c2c(c(=N)c3c1CCC3)CCCC2,"35.5 µM [falling, single point]",
O=C(NCc1ccco1)c1cc(-c2ccco2)on1,"11.2 µM [falling, single point]",
COc1ccc2oc(CS(=O)c3ccccc3)c(C(=O)O)c2c1 (stereo not drawn),"1 µM [falling, full curve]",
Cc1noc(NS(=O)(=O)c2ccc(N/C=C\C(=O)c3ccncc3)cc2)c1C,"6.51 µM [falling, single point]","6.51 µM [rising, partial curve, poor fit]"
O=C1NC(c2cccs2)C(C(=O)c2ccccc2)C(O)(C(F)(F)F)N1 (stereo not drawn),"35.5 µM [rising, partial curve, poor fit]",
COc1cc2cc(C(=O)N3CCOCC3)cc(-c3ccc(C)cc3)c2cc1OC,,"20 µM [falling, single point]"
COc1ccc(NC(=O)c2ccco2)cc1N,"8.91 µM [falling, partial curve, poor fit]",
O=C(Nc1ccc(Cl)c(Cl)c1)N1N=CCC1c1ccccc1 (stereo not drawn),"7.08 µM [rising, partial curve, poor fit]",
CC12CCC(C(=O)N(NC(=O)c3cc(Cl)ccc3O)C1=O)C2(C)C (stereo not drawn),"3.55 µM [falling, partial curve, poor fit]",
CC(NC(=O)c1ccc(OC2CCN(C(=O)c3cccnc3)CC2)cc1)C1CC1 (stereo not drawn),"0.1 µM [rising, full curve, poor fit]",
COc1ccc(CCNC(=O)c2ccccc2OCc2ccccc2)cc1,"10 µM [falling, partial curve]",
CCOC(=O)c1ccc(OCC2c3cc(OC)c(OC)cc3CCN2C(=O)Cc2ccc(F)cc2)cc1 (stereo not drawn),"7.08 µM [falling, partial curve]",
CC1CN=C(N(C(=O)Nc2ccccc2)c2ccc(F)cc2)S1 (stereo not drawn),"29.1 µM [falling, single point]",
Nc1cc(OC(=O)c2ccccc2Br)nn1S(=O)(=O)c1ccccc1,"17.8 µM [falling, partial curve]",
CCCCOC(=O)NS(=O)(=O)c1sc(CC(C)C)cc1-c1ccc(Cn2c(CC)nc3c(C)cc(C)nc32)cc1,"29.1 µM [falling, single point]",
COc1ccc(O)c(C(=O)c2cnn(-c3ccc(Cl)cc3)c2)c1,"35.5 µM [falling, partial curve, poor fit]",

Compound,AC50 [1],AC50 [2]
Fc1ccc(-c2cc3nc(-c4ccccc4)cc(N4CCOCC4)n3n2)cc1,"0.164 µM [falling, full curve, poor fit]",
COc1ccccc1NC(=O)CSc1nnc(-c2ccccc2)o1,"2.06 µM [rising, partial curve, poor fit]",
CC(C)C(=O)NC(c1ccco1)c1ccc2cccnc2c1O (stereo not drawn),"35.5 µM [falling, single point]",
Cc1nn(-c2ccccc2)cc1C(c1c(N)[nH]c(=S)[nH]c1=O)c1c(N)[nH]c(=S)[nH]c1=O,"0.398 µM [rising, partial curve, poor fit]",
CCCC(=O)OCCNc1cc(SCCC(=O)OC)c2nonc2c1[N+](=O)[O-],"29.1 µM [falling, single point]",
CC(NC(=O)C1CCN(C(=O)Nc2ccccc2)CC1)c1ccccc1Cl (stereo not drawn),"23.1 µM [rising, single point]",
Cc1ccccc1OCC(O)Cn1c(Br)nc2c1c(=O)[nH]c(=O)n2C (stereo not drawn),"2.82 µM [rising, single point]",
CNc1c([N+](=O)[O-])cnn1-c1ccccc1Cl,"7.94 µM [rising, partial curve, poor fit]",
COc1ccc(OCc2nnc(NC(=O)Nc3ccc(F)cc3)s2)cc1,"15.8 µM [rising, partial curve, poor fit]",
CC(C)(C)C1CCC(=NNC(=S)NCc2ccccc2)CC1 (stereo not drawn),"12.6 µM [falling, partial curve, poor fit]","35.5 µM [falling, single point]"
CC(C)(C)NC(=O)NC(=O)COC(=O)C1c2ccccc2Oc2ccccc21,"17.8 µM [falling, partial curve, poor fit]",
CN1CCN(C2CC(=O)N(c3ccc4c(c3)OCCO4)C2=O)CC1 (stereo not drawn),"16.4 µM [rising, single point]",
CNC(=O)Cn1nc(-c2ccc(C)c(S(=O)(=O)N(C)C)c2)c2ccccc2c1=O,"18.4 µM [rising, single point]",
CCN1CCN(Cc2c(O)ccc3c2O/C(=C\C=C\c2ccccc2)C3=O)CC1,"16.4 µM [falling, partial curve]",
CCOc1ccc(CN(C)C(=O)CNC(=O)C2CCCCC2)cc1OC,"31.6 µM [rising, single point]",
Cc1cccc(Cn2cccc2/C=C2/C(=N)N3C=CSC3=NC2=O)c1,"20.6 µM [rising, single point]",
CS(=O)(=O)Nc1cccc(C2=NN(C(=O)c3ccc(F)cc3)C(c3cccs3)C2)c1 (stereo not drawn),"22.4 µM [falling, single point]",
COc1cc2c(cc1Cl)/C(=C\CCN(C)C)c1ccccc1S2,"32.6 µM [falling, single point]",
CC(C)(C)C(=O)/C(=C\c1cccc([N+](=O)[O-])c1)n1cncn1,"2.31 µM [falling, full curve]","7.31 µM [rising, partial curve, poor fit]"
CCOC(=O)c1c(C)oc2c1cc(NS(=O)(=O)c1ccc(C(=O)O)cc1)c1ccccc12,"35.5 µM [rising, single point]","35.5 µM [falling, partial curve, poor fit]"
